From ChEMBL document CHEMBL3988442, “University of Dundee, Small-Polar-MMV Screening Library” (2021).

Mtb growth Cornell: 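Whole-cell assay for inhibitors of Mycobacterium tuberculosis growth, labelled Cornell in the record; the read-out is not stated. The concentration is filed as 10 mM, unlikely as a test dose, so the dose is not known. The record gives no direction; compounds strong in two other growth screens of this library score well above the rest, so higher reads as stronger inhibition. Of about 53,000 compounds tested this way, about 900 (1.7%) reached 50% or more in at least one test.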
Mtb heat-shock: 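Assay on Mycobacterium tuberculosis, filed only as a heat shock assay from Cornell; the read-out is not stated. The concentration is filed as 10 mM, unlikely as a test dose, so the dose is not known. Direction is inferred from retests: higher values go with stronger inhibition. Size under these conditions: about 69,000 compounds, about 930 of them at 50% or above in at least one test.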

The filed quantity is “Percent Effect” (%).
How 0% and 100% were set is not recorded. Most values in the screen are low, and negative values occur.
Compounds were drawn at random from those tested, without regard to their results.

For COCCCNc1nc(CNC(=O)C2CCC2)cc(-c2ccco2)n1 the result was Mtb growth Cornell: 2.663%; Mtb heat-shock: -5.479%.
For Cc1ccsc1C(=O)N1CCC2(CC(N(C)c3ccncn3)C2)C1 (configuration not stated) the result was Mtb heat-shock: -12.44%.
For CCC(O)CN1CCN(C(=O)c2sccc2C2CC2)CC1 (configuration not stated) the result was Mtb heat-shock: -29.56%.
For CCN(CC)C(=O)CCCNC(=O)Cc1nc(-c2ccco2)oc1C the result was Mtb growth Cornell: -12.08%; Mtb heat-shock: -42.94%.
For c1cc2c(cc1CN1CCCC3(CCOC3)C1)OCO2 (configuration not stated) the result was Mtb growth Cornell: -19.42%; Mtb heat-shock: -9.263%.
For O=C(c1cc(CC2(NC3CCCCC3)COC2)no1)N1CCCCC1 the result was Mtb heat-shock: -0.9268%.
For COc1ccc(F)c(CN(CCCn2ccnc2)Cc2ccc(C)s2)c1.O=C(O)CC(O)(CC(=O)O)C(=O)O the result was Mtb growth Cornell: -26.34%; Mtb heat-shock: 102.4%.
For FC(F)Oc1ccc(CNCc2cc(Br)c3c(c2)OCO3)cc1 the result was Mtb heat-shock: -16.9%.
For Fc1cccc(N2CCCC3(C2)CN(c2ncccn2)CCO3)c1.O=C(O)C(F)(F)F.O=C(O)C(F)(F)F (configuration not stated) the result was Mtb growth Cornell: 36.52%; Mtb heat-shock: 18.29%.
For CCCN(C)S(=O)(=O)N1CCCC1c1ccco1 (configuration not stated) the result was Mtb heat-shock: -22.65%.
For O=C(O)C(F)(F)F.O=C(O)C(F)(F)F.[H][C@@]12CN(Cc3ccoc3)C[C@]1([H])OCCN2c1ccc(C)nn1 the result was Mtb growth Cornell: -53.25%; Mtb heat-shock: -23.95%.
For [H][C@@]12COC[C@]1([H])[C@@H](OCC1CCOCC1)CN2c1ncccn1 the result was Mtb growth Cornell: 8.662%; Mtb heat-shock: 2.691%.
For CC(C)c1nc(O)c2nnn(C[C@H]3CCCN(Cc4ccsc4)C3)c2n1 the result was Mtb growth Cornell: -22.77%; Mtb heat-shock: 15.42%.
For CN(Cc1ccsc1)C(=O)c1ccc2c(c1)NC(=O)CO2 the result was Mtb heat-shock: -14.05%.
For O=C1CC2(CCCCN2C(=O)c2ccoc2)CN1Cc1ccccc1 (configuration not stated) the result was Mtb heat-shock: -7.018%.
For N#CCCN(C(=O)CN1CCCC1c1cccs1)c1ccccc1F (configuration not stated) the result was Mtb heat-shock: -9.754%.
For NC(=O)CC1CCN(C(=O)NCCc2ccc(Cl)s2)CC1 the result was Mtb growth Cornell: -9.102%; Mtb heat-shock: 13.22%.
For O=S(=O)(Nc1cnn(C2CCOCC2)c1)c1ccc(F)c(F)c1 the result was Mtb growth Cornell: 20.57%; Mtb heat-shock: 6.419%.
For O=C(O)C(F)(F)F.O=C(O)C(F)(F)F.[H][C@]12CCN(c3cnn(C)c3)C(=O)[C@]1([H])CN(Cc1ccncc1)C2 the result was Mtb growth Cornell: -8.311%; Mtb heat-shock: -8.118%.
For O=C(Nc1cc(C(F)(F)F)c[nH]c1=O)N1CCCSCC1 the result was Mtb growth Cornell: 22.65%; Mtb heat-shock: 27.58%.
For CSc1cccc(CN(C)C(=O)CN2CCN(c3ncccn3)CC2)c1 the result was Mtb growth Cornell: -0.8502%; Mtb heat-shock: -45.82%.
For [H][C@]12CCC[C@@]1(COc1ccccn1)CN(C(=O)Cc1ccccn1)C2 the result was Mtb growth Cornell: 16.46%; Mtb heat-shock: -22.5%.
For COc1cccc(C(=O)C2CCCN(c3cc(C#N)ccn3)C2)c1 (configuration not stated) the result was Mtb growth Cornell: -3.601%; Mtb heat-shock: -63.95%.
For COc1ncccc1NC(=O)NCC1CC1 the result was Mtb growth Cornell: 6.086%; Mtb heat-shock: -5.974%.
For COc1cc(N2CCC(c3nccn3Cc3ccccn3)CC2)ncn1 the result was Mtb growth Cornell: -30.04%; Mtb heat-shock: -1.13%.
For Cn1ccnc(Nc2ccc3c(c2)CCN3C(=O)c2ccoc2)c1=O the result was Mtb growth Cornell: 17.14%; Mtb heat-shock: 2.571%.
For [H][C@@]12CCN(C(=O)COC3CCCC3)C[C@]1(COCC1CC1)CCO2 the result was Mtb growth Cornell: -5.118%; Mtb heat-shock: 3.816%.
For Oc1cc(CCC2CCCCN2)cc(-c2cccnc2)c1 (configuration not stated) the result was Mtb heat-shock: -26.47%.
For Cc1cc(C)cc(CCC(=O)N(C)CCc2cn[nH]c2)c1 the result was Mtb growth Cornell: 14.77%; Mtb heat-shock: -9.195%.
For Cc1cc(C)nc(N2CCC(C(=O)Nc3ccc(C(C)C)cc3)CC2)n1 the result was Mtb growth Cornell: -5.701%; Mtb heat-shock: 1.232%.
For O=C(NCC1CC1)C1CN(C(=O)c2cnccn2)CC12CCOCC2 (configuration not stated) the result was Mtb growth Cornell: 23.84%; Mtb heat-shock: 6.921%.
For CN(C)C(=O)c1cccc(CN2CCN(CCO)CC2)c1 the result was Mtb heat-shock: -24.75%.
For Cc1cnn(CC2CCCCN2Cc2nnc(C3CC3)n2C)c1 (configuration not stated) the result was Mtb heat-shock: -9.717%.
For O=C(NC1CCCC1)O[C@H]1COCCN(c2nc3ccccc3s2)C1 the result was Mtb heat-shock: -5.762%.

2 of the entries, repeated:

{"smiles": "COc1ncccc1NC(=O)NCC1CC1", "Mtb growth Cornell": 6.086, "Mtb heat-shock": -5.974}
{"smiles": "[H][C@@]12COC[C@]1([H])[C@@H](OCC1CCOCC1)CN2c1ncccn1", "Mtb growth Cornell": 8.662, "Mtb heat-shock": 2.691}